Measured values from paper PMC6010280.
No constants are given. Whether binding was seen depends on the method and setting. In cells and extracts the contact can be indirect. A yes stands for co-enrichment or nearness to the bait. Other partners may have been found. For part of these data: No binding means not detected with the bait.

By UniProt entry, the sequences of proteins in these tests, tags left out. Where a name states a change or a piece, a line headed by the entry shows the natural chain unless it says otherwise. Residues count along the entry.
UniProt P32755: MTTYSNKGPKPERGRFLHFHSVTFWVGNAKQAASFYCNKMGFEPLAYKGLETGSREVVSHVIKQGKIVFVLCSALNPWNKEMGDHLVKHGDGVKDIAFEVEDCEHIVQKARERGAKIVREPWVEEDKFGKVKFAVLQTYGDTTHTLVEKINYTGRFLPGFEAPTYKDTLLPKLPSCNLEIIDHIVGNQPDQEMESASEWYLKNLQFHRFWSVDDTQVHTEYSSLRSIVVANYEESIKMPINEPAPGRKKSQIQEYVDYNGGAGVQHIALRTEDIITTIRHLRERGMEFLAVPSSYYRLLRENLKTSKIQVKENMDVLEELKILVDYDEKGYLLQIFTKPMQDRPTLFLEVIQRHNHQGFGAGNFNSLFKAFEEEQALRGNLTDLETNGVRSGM
UniProt Q9Z286: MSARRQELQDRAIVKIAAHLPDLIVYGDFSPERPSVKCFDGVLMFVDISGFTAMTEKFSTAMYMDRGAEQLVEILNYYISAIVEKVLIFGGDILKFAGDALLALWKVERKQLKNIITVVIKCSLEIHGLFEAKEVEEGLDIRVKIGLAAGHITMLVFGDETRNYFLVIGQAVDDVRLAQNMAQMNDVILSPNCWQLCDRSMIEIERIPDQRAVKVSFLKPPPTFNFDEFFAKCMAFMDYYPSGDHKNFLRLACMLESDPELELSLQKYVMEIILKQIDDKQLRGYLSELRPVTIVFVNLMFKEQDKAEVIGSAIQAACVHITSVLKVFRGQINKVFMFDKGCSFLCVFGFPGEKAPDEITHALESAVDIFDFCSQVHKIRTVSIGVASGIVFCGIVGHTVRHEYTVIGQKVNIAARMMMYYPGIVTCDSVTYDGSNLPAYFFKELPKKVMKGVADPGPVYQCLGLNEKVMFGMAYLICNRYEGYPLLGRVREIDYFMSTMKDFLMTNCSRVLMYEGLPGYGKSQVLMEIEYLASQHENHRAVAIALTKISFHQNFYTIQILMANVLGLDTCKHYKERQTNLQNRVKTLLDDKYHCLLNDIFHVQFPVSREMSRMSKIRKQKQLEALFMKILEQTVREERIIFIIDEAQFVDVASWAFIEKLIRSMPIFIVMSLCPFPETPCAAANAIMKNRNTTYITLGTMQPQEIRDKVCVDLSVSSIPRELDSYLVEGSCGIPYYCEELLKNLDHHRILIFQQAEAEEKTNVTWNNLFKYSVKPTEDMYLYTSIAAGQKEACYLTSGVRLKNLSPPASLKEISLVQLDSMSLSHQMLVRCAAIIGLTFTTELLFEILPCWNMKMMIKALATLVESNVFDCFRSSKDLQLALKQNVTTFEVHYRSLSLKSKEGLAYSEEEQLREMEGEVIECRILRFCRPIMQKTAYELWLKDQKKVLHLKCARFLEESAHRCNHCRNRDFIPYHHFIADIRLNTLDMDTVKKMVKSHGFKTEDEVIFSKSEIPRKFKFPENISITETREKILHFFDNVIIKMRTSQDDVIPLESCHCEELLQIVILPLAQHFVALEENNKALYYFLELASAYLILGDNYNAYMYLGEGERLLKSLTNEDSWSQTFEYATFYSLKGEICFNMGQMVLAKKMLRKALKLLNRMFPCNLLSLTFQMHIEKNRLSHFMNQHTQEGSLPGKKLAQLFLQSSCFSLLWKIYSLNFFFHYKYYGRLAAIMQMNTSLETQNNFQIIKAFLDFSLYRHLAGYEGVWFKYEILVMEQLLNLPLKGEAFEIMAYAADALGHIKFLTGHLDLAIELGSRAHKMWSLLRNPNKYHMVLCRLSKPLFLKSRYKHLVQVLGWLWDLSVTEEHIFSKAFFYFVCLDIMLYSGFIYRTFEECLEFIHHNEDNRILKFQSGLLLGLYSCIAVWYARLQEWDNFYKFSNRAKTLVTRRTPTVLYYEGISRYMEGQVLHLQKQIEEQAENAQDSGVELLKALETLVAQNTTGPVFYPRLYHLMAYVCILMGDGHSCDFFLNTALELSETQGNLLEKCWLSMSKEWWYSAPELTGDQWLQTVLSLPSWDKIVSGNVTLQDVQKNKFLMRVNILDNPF
UniProt B4F7A9: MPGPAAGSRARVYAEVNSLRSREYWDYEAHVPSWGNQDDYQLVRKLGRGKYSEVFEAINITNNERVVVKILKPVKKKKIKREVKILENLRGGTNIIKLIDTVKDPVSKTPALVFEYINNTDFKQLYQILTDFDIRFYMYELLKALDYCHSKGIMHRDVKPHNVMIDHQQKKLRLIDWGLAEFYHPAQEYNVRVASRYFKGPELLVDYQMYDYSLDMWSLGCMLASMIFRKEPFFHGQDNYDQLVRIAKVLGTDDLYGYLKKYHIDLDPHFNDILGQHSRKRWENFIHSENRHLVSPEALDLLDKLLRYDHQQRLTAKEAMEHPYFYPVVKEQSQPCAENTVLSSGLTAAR
UniProt Q5M883: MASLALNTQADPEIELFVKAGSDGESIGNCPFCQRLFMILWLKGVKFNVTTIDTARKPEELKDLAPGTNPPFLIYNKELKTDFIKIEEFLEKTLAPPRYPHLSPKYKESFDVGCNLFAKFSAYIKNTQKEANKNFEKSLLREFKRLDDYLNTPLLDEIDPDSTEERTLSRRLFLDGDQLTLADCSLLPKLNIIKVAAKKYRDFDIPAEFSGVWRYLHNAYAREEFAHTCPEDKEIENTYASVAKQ
UniProt Q6VV72: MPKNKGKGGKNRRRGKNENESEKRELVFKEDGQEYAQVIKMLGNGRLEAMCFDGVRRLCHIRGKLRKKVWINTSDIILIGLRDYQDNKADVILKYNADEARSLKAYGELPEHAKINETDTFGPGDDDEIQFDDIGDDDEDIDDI
UniProt P14659: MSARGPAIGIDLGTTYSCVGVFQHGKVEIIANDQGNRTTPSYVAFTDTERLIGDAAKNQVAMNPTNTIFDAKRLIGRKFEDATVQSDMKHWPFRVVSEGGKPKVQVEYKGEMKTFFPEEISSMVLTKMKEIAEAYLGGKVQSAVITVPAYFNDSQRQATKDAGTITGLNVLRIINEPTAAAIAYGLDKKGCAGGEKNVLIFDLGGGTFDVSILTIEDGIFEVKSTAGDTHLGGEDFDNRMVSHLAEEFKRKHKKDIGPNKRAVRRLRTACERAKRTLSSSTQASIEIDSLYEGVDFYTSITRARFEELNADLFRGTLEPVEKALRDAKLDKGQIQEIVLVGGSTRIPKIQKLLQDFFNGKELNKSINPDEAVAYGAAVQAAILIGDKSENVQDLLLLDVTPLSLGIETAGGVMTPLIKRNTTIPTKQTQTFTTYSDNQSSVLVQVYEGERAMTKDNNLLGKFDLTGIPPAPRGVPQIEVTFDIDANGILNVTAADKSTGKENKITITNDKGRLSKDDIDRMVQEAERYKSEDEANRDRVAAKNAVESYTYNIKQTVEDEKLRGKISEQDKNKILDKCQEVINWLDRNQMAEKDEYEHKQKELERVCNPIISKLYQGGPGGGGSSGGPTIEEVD
UniProt P04256: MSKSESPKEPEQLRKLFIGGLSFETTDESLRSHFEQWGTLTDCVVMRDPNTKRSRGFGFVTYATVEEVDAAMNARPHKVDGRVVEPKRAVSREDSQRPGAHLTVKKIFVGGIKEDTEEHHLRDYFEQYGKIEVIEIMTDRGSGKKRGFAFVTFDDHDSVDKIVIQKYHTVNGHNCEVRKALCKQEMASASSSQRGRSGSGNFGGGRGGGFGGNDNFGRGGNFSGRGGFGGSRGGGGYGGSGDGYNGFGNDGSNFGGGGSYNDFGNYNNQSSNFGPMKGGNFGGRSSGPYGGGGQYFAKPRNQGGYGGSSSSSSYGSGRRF
UniProt A7VJC2: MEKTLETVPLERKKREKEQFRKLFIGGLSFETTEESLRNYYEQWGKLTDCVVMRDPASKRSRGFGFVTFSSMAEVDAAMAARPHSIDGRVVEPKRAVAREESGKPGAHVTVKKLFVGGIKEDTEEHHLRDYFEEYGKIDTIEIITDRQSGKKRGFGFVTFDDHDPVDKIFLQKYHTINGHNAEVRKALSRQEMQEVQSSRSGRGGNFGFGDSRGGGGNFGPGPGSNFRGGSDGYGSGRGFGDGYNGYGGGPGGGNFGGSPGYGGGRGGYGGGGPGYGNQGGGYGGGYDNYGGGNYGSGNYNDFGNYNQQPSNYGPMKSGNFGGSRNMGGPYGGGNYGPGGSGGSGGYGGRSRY
UniProt Q5BJR5: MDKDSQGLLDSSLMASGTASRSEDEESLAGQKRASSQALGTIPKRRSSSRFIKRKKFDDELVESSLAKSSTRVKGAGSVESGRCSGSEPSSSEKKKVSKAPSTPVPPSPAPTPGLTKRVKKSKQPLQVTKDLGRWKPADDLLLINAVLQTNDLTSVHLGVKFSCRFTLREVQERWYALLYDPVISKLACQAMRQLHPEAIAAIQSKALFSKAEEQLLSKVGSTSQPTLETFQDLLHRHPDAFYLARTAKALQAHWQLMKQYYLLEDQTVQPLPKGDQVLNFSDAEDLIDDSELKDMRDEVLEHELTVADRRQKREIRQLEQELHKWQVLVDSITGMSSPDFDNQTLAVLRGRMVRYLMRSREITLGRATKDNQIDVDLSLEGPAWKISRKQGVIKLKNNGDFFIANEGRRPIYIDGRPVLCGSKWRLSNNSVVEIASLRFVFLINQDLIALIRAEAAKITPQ
UniProt P62961: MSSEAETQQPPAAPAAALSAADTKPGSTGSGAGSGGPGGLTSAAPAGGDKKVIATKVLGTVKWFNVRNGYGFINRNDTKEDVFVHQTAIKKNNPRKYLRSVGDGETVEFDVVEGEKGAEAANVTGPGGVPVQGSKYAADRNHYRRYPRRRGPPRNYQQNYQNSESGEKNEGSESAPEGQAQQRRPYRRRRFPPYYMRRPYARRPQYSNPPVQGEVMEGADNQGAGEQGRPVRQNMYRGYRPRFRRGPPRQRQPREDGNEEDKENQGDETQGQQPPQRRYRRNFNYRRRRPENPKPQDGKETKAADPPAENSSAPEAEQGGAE
UniProt P13383: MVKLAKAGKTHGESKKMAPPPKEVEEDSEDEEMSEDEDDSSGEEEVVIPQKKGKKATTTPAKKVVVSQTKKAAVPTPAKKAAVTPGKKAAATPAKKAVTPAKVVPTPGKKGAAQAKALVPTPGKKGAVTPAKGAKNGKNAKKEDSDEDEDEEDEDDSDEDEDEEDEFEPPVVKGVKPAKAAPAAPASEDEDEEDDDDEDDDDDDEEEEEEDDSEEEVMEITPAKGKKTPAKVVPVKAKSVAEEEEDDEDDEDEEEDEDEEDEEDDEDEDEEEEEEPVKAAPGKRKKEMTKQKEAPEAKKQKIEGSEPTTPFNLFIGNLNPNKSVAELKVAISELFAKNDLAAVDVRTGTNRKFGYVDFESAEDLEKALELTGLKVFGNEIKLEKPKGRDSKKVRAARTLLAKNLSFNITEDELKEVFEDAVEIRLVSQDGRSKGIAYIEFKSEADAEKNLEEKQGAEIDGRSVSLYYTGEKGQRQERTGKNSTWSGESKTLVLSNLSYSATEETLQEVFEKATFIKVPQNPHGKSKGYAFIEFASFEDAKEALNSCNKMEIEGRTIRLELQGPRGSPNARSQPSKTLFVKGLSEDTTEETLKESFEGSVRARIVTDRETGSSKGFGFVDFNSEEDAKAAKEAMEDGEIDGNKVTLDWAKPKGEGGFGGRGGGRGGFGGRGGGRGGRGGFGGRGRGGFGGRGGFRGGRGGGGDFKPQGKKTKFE
UniProt P13084: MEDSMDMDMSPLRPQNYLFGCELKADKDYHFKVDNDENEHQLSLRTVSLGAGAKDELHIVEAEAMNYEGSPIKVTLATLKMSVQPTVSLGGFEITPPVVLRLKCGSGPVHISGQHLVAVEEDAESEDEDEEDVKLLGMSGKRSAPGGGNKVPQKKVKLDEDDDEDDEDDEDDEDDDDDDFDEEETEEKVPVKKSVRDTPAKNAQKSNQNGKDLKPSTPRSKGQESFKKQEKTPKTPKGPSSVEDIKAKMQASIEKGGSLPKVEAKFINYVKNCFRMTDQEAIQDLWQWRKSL
UniProt P04785, residues 20-509: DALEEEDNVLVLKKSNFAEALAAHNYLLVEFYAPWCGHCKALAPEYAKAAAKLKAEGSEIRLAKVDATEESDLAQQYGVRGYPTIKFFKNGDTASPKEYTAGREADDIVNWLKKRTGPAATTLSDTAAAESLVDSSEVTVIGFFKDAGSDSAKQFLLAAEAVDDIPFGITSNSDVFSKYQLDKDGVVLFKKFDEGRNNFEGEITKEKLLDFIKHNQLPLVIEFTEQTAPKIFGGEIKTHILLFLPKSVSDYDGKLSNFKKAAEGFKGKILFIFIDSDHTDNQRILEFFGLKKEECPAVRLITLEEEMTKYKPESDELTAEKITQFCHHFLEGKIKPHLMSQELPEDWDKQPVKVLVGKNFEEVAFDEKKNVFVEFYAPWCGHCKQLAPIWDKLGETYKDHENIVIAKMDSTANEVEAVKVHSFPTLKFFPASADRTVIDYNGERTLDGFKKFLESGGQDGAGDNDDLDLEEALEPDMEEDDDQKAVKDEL
UniProt P32821: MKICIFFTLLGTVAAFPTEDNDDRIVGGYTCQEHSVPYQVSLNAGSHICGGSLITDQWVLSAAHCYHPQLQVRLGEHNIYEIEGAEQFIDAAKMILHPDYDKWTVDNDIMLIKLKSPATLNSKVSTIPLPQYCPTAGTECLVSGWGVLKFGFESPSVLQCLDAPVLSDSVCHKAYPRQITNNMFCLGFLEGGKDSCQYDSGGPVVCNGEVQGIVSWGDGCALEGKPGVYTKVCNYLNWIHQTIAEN

Key:
[1] = biological target: T1, intein-BHMT (betaine homocysteine S-methyltransferase) (R. norvegicus) (UniProt O09171); test: affinity purification with mass spectrometry; same columns; all eluates of the intein-BHMT column compared with those of the bead-only and intein columns; only the target purified
T1 sequence: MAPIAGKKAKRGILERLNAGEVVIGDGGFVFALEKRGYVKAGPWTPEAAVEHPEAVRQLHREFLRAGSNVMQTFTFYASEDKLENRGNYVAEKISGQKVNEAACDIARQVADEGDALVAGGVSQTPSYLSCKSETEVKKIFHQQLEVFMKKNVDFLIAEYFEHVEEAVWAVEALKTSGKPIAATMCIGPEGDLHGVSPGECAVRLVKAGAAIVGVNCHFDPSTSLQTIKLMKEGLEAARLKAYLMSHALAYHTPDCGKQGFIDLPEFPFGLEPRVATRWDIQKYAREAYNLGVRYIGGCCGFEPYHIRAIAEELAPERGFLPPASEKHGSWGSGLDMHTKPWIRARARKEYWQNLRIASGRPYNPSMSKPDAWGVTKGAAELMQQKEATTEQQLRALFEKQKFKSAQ

[2] = biological target: T1, intein-BHMT (betaine homocysteine S-methyltransferase) (R. norvegicus); test: affinity purification with mass spectrometry; intein-BHMT held on chitin beads; rat liver cytosol first passed over a bead-only and an intein column; 10 mM sodium phosphate pH 7.4, 5 mM EDTA, 0.1 mM EGTA, 4°C; bound proteins eluted with a 0-500 mM NaCl gradient (peak at 50-100 mM NaCl); LC-MS/MS; only the target purified
[3] = biological target: T1, intein-BHMT (betaine homocysteine S-methyltransferase) (R. norvegicus); test: affinity purification with mass spectrometry; same intein-BHMT chitin column after the salt gradient; proteins recovered together with BHMT upon intein excision with 30 mM 2-mercaptoethanol, 48 h at 23°C (strong interactors); LC-MS/MS; only the target purified

binding [2] | binding [3] | Substance | also measured
 |  | 4-hydroxyphenylpyruvic acid dioxygenase (HPD) (liver cytosol) (from UniProt P32755 1-393) | binding [1]: no binding
binds |  | 14-3-3 protein epsilon (Ywhae) (from UniProt P62260 1-255) | 
 | binds | Ac2-048 (from UniProt Q7TPK7) | 
binds |  | Activated RNA polymerase II transcriptional coactivator p15 (from UniProt Q63396 1-127) | 
binds |  | Adenylate cyclase type 10 (from UniProt Q9Z286 1-1608) | 
binds |  | AlF-C1 (from UniProt O88311) | 
 | binds | Annexin A2 (from UniProt Q07936 1-339) | 
binds |  | Casein kinase 2 α2 (from UniProt B4F7A9 1-350) | 
 | binds | Chloride intracellular channel protein 2 (from UniProt Q5M883 1-245) | 
 | binds | Collagen alpha-1(II) chain (from UniProt P05539 26-1419) | 
 | binds | Cytoplasmic dynein 1 intermediate chain 1 (from UniProt Q63100 1-643) | 
binds |  | DNA damage-binding protein 1 (from UniProt Q9ESW0 1-1140) | 
 | binds | DNA ligase (entry Q5U2M4) (rat (endogenous in liver)) | 
binds |  | DNA-(apurinic or apyrimidinic site) lyase, APEX1 (from UniProt P43138 1-317) | 
 | binds | Dynein heavy chain 12, axonemal (from UniProt Q923J6 1-3092) | 
binds |  | ECHP Peroxisomal bifunctional enzyme (from UniProt P07896 1-722) | 
binds |  | Eukaryotic translation initiation factor 1A (from UniProt Q6VV72 1-144) | 
binds |  | Eukaryotic translation initiation factor 5 (from UniProt Q07205 1-429) | 
 | binds | GRB2-associated-binding protein 2 (from UniProt Q9EQH1 1-665) | 
binds |  | HSP7C Heat shock cognate 71 kDa protein (from UniProt P63018 1-646) | 
binds |  | HSP72 Heat shock-related 70 kDa protein 2 (from UniProt P14659 1-633) | 
binds |  | Heterogeneous nuclear ribonucleoprotein A1 (from UniProt P04256 1-320) | 
binds |  | Heterogeneous nuclear ribonucleoprotein A3 (from UniProt Q6URK4 1-379) | 
binds |  | Heterogeneous nuclear ribonucleoprotein D0 (from UniProt Q9JJ54 1-353) | 
binds |  | Heterogeneous nuclear ribonucleoproteins A2/B1 (from UniProt A7VJC2 1-353) | 
binds |  | High mobility group box 3, Hmgb3 (from UniProt B0BN99) | 
binds |  | High mobility group protein B1 (HMGB-1) (from UniProt P63159 1-215) | 

binding [2] | binding [3] | Substance | also measured
binds |  | Homeobox protein (entry Q9QYQ9) (rat (endogenous in liver)) | 
 | binds | Hyaluronan synthase 1 (from UniProt Q8CH93) | 
binds |  | Importin subunit alpha, Karyopherin alpha 4 (from UniProt Q56R17 1-521) | 
 | binds | Keratin, type II cytoskeletal 4 (from UniProt Q6IG00 1-536) | 
 | binds | LOC304239 protein (entry B2GV26) (rat (endogenous in liver)) | 
 | binds | LOC304239 protein (entry Q4V8M7) (rat (endogenous in liver)) | 
 | binds | Microspherule protein 1 (from UniProt Q5BJR5 1-462) | 
binds |  | Nardilysin (from UniProt P47245) | 
binds |  | Nuclease-sensitive element-binding protein 1 (from UniProt P62961 1-322) | 
binds |  | Nucleolin (from UniProt P13383 1-713) | 
binds |  | Nucleophosmin (from UniProt P13084 1-292) | 
 | binds | Polr3a protein (from UniProt Q5RK26) | 
binds |  | Protein disulfide-isomerase (from UniProt P04785 20-509) | 
binds |  | Quinone oxidoreductase-like protein 2 (from UniProt B0BNC9) | 
binds |  | RAT Protein kinase C epsilon type (from UniProt P09216 1-737) | 
 | binds | RCG58555, isoform CRA_a (rat (endogenous in liver)) | 
binds |  | S-adenosylmethionine synthase isoform type-1, MATα1 (from UniProt P13444 1-397) | 
binds |  | S-adenosylmethionine synthase isoform type-2, MATα2 (from UniProt P18298 1-395) | 
binds |  | S-adenosylmethionine synthase, MATα2 (entry Q6P688) (from UniProt P18298 1-395) | 
binds |  | Serine/threonine-protein kinase 24 (from UniProt B0LT89 1-431) | 
binds |  | Serine/threonine-protein kinase WNK1 (from UniProt Q9JIH7 1-2126) | 
binds |  | Serine/threonine-protein kinase WNK4 (from UniProt Q7TPK6 1-1222) | 
 | binds | Sodium myo-inositol transporter (rat (endogenous in liver)) | 
 | binds | Trypsin V-A (from UniProt P32821) | 
 | binds | Zinc finger and SCAN domain containing 21 (from UniProt Q6AXN8 1-554) | 
 | binds | Zinc finger protein (entry Q9QYU6) (rat (endogenous in liver)) | 
 |  | transthyretin (liver cytosol) (from UniProt P02767 21-147) | binding [1]: no binding
